Among the data in doi:10.1101/2023.09.17.558134 (bioRxiv, 2023) are binding values, retold here.

The chains behind the UniProt entries cited, without tags or fusion partners.
UniProt P0AE60: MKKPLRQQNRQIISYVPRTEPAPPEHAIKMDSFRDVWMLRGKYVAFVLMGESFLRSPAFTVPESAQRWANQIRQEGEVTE

The experiment addresses CedA, chromosomally 3×FLAG-tagged (E. coli) (UniProt P0AE60). Description: affinity purification with mass spectrometry.

These are yes or no findings as the source states them, for the method shown. Binding seen in cells or lysates may run through a third protein. These calls come from enrichment with a bait or labelling near it, and not all partners need be listed.

B1: stringent starvation protein A (SspA), endogenous (protein, UniProt P0ACA3 1-212)
chain: MAVAANKRSVMTLFSGPTDIYSHQVRIVLAEKGVSFEIEHVEKDNPPQDLIDLNPNQSVPTLVDRELTLWESRIIMEYLDERFPHPPLMPVYPVARGESRLYMHRIEKDWYTLMNTIINGSASEADAARKQLREELLAIAPVFGQKPYFLSDEFSLVDCYLAPLLWRLPQLGIEFSGPGAKELKGYMTRVFERDSFLASLTEAEREMRLGRS
On to B1, for which the binding entry is listed as “binds”.
